Drawing on paper PMC4855823, this text covers binding for two substances.

Sequences of proteins named here, by UniProt entry; tags and fusion partners are left off.
UniProt Q96SW2: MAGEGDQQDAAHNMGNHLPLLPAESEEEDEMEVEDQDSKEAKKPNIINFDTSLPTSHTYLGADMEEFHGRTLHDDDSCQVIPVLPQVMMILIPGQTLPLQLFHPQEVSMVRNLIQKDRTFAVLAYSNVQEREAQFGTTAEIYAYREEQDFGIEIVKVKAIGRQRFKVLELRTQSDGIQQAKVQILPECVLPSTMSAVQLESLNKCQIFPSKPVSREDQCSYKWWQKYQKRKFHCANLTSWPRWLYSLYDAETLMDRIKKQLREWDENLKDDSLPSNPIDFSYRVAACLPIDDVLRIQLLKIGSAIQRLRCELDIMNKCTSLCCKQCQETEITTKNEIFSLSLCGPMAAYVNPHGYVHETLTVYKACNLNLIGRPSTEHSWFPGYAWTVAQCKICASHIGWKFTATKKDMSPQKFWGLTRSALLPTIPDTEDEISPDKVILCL
UniProt Q13620: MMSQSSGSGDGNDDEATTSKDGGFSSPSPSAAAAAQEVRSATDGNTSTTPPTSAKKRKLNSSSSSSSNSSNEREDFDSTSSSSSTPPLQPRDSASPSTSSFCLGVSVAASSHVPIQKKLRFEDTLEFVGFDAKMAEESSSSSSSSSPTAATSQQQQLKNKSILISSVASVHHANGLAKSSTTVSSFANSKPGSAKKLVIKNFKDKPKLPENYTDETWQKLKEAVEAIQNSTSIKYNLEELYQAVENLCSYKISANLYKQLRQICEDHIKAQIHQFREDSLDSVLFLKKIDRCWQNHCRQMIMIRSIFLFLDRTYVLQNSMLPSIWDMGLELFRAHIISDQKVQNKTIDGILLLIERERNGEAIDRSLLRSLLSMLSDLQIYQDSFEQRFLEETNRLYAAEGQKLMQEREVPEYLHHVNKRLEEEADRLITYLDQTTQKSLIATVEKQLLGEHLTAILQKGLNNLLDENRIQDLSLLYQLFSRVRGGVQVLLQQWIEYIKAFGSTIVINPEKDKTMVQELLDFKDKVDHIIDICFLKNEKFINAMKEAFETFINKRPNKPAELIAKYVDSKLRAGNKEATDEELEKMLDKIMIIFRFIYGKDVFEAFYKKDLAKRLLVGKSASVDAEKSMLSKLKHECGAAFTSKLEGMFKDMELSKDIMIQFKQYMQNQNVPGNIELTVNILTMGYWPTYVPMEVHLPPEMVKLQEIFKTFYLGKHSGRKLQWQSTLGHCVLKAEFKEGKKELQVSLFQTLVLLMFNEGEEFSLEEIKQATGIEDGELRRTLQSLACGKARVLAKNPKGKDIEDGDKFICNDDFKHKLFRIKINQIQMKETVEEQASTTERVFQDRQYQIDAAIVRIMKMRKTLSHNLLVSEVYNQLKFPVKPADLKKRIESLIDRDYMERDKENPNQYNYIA
UniProt Q13619: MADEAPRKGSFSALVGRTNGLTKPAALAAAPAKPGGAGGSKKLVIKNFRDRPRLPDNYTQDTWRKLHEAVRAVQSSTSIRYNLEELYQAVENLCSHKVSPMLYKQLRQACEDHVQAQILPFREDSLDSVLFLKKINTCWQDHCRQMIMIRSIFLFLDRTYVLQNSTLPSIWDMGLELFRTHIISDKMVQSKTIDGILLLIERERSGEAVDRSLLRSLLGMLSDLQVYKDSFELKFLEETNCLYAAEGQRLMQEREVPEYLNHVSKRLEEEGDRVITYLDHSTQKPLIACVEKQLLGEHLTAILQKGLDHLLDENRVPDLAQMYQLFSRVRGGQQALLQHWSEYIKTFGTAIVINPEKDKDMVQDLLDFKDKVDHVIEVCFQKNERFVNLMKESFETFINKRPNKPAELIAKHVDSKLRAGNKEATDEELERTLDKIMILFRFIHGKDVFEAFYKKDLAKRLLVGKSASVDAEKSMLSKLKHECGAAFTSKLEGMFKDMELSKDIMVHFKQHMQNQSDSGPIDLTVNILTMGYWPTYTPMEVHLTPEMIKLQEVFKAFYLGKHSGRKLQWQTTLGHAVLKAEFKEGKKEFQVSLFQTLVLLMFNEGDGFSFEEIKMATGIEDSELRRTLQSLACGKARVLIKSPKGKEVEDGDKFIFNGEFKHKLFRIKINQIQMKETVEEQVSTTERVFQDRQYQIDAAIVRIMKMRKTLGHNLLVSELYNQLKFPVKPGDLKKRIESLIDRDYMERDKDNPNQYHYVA

The target of the experiment is His-tagged cereblon (CRBN) expressed in My5.CRBN.His cells (human) (UniProt Q96SW2). The experiment can be described thus: affinity purification with mass spectrometry; His-tagged CRBN held on Ni-NTA agarose beads from My5.CRBN.His lysate (nitrogen cavitation, no detergent; 20 mM Tris/HCl pH 7.9, 500 mM NaCl, 10 % glycerol, 5 mM imidazole, overnight 4 °C; washes 10, 20, 40 mM imidazole; eluted with 100 mM EDTA); SDS-PAGE bands analysed by MS/MS; control My5.LV lysate.

Results are given in words; binding and its absence hold for the method and conditions named. Binding seen in cells or lysates may run through a third protein. These calls come from enrichment with a bait or labelling near it, and not all partners need be listed.

Regarding “cullin-4B (CUL-4B) (from UniProt Q13620 1-913)”, the binding entry is given as “binds”.
The entry for “cullin-4A (CUL-4A) (from UniProt Q13619 1-759)” is “binds”.
